Experimental data as given in publication PMC12853711.
No constants are given. Whether binding was seen depends on the method and setting. Binding seen in cells or lysates may run through a third protein. Some entries that bind do so weakly or less than the wild type. For some of these results: Sequences can lack the tags named with a protein.

Amino acid sequences for entries named in this document (tags omitted).
UniProt Q99873: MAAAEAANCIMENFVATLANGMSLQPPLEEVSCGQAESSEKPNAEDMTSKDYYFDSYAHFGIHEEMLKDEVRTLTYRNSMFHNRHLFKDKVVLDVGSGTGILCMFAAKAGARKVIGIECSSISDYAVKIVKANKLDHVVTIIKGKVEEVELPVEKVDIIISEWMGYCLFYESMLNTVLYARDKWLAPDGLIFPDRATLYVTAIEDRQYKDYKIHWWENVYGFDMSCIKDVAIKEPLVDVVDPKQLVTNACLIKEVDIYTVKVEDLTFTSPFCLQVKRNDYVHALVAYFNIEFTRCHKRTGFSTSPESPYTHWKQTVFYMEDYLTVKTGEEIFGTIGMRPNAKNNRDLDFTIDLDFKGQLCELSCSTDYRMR
UniProt P52294: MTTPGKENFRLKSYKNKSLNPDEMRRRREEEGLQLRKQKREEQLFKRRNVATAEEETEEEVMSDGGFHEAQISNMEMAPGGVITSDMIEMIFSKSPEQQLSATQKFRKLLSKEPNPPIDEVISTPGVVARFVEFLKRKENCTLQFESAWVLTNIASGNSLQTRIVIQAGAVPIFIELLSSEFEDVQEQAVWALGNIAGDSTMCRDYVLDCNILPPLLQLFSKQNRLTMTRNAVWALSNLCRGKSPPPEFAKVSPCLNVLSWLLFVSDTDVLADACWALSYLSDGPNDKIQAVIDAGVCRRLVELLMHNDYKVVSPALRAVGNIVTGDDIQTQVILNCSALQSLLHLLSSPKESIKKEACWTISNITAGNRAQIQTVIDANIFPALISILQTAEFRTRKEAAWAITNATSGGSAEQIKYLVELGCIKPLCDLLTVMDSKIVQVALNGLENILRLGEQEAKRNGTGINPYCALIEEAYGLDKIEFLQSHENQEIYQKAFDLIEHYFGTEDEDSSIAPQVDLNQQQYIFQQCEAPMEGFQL

T1: SFPQ-N (1–371 amino acid residues), Flag-tagged (UniProt P23246)
T1 sequence: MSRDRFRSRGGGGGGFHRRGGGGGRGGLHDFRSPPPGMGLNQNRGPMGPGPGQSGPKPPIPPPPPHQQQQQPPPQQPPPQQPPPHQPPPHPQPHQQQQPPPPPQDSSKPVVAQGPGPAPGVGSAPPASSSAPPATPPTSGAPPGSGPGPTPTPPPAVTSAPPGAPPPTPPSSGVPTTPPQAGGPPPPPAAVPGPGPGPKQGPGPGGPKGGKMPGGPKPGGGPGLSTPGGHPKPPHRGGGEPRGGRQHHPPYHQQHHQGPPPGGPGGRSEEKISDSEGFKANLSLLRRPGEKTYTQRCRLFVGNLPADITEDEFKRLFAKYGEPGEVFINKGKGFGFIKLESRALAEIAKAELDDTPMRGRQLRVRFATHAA

T2: full-length Flag-tagged SFPQ (UniProt P23246)
T2 sequence: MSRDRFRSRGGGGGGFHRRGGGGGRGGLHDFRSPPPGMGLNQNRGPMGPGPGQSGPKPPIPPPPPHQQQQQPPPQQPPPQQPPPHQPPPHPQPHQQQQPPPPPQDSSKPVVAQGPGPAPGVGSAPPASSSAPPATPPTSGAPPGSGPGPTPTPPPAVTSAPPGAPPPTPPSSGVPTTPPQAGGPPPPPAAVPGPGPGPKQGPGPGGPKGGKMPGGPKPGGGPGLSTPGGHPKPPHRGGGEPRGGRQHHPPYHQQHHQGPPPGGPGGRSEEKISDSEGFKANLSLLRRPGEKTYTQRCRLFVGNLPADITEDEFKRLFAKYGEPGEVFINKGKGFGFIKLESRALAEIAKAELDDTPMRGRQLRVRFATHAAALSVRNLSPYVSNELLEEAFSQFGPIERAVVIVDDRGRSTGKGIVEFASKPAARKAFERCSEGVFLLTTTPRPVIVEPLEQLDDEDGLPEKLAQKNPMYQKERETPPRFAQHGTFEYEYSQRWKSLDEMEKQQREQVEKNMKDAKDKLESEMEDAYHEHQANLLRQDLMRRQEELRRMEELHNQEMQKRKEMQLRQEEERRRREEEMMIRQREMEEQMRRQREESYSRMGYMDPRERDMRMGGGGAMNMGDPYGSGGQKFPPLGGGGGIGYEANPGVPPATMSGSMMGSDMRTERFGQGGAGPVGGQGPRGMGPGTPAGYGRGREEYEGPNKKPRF


Assays:
[1] = target: T1, SFPQ-N (1–371 amino acid residues), Flag-tagged; test: co-IP; HA-tagged TRIM59 (full-length or truncated) with Flag-tagged SFPQ (full-length or truncated); cells not given; western blot
[2] = target: T2, full-length Flag-tagged SFPQ; test: as above
[3] = target: PRMT1 (human (endogenous in SK-N-BE(2) and CHP-134)) (UniProt Q99873); test: co-IP; SK-N-BE(2) cell lysates (IP lysis buffer: 20 mM Tris-HCl pH 7.4, 150 mM NaCl, 0.5% Triton X-100, 0.5% deoxycholate, 1 mM DTT), protein A/G-agarose and indicated antibodies, 4 °C overnight, western blot; reciprocal IP for PRMT1; some panels with cells carrying shC or shTRIM59
[4] = target: importin α5 (human (endogenous in SK-N-BE(2))) (UniProt P52294); test: as above

Binder	binding [1]	binding [2]	binding [3]	binding [4]
full-length HA-tagged TRIM59 (protein, UniProt Q8IWR1 1-403) MHNFEEELTCPICYSIFEDPRVLPCSHTFCRNCLENILQASGNFYIWRPLRIPLKCPNCRSITEIAPTGIESLPVNFALRAIIEKYQQEDHPDIVTCPEHYRQPLNVYCLLDKKLVCGHCLTIGQHHGHPIDDLQSAYLKEKDTPQKLLEQLTDTHWTDLTHLIEKLKEQKSHSEKMIQGDKEAVLQYFKELNDTLEQKKKSFLTALCDVGNLINQEYTPQIERMKEIREQQLELMALTISLQEESPLKFLEKVDDVRQHVQILKQRPLPEVQPVEIYPRVSKILKEEWSRTEIGQIKNVLIPKMKISPKRMSCSWPGKDEKEVEFLKILNIVVVTLISVILMSILFFNQHIITFLSEITLIWFSEASLSVYQSLSNSLHKVKNILCHIFYLLKEFVWKIVSH	binds	binds		
TRIM59 (protein, UniProt Q8IWR1 1-403) MHNFEEELTCPICYSIFEDPRVLPCSHTFCRNCLENILQASGNFYIWRPLRIPLKCPNCRSITEIAPTGIESLPVNFALRAIIEKYQQEDHPDIVTCPEHYRQPLNVYCLLDKKLVCGHCLTIGQHHGHPIDDLQSAYLKEKDTPQKLLEQLTDTHWTDLTHLIEKLKEQKSHSEKMIQGDKEAVLQYFKELNDTLEQKKKSFLTALCDVGNLINQEYTPQIERMKEIREQQLELMALTISLQEESPLKFLEKVDDVRQHVQILKQRPLPEVQPVEIYPRVSKILKEEWSRTEIGQIKNVLIPKMKISPKRMSCSWPGKDEKEVEFLKILNIVVVTLISVILMSILFFNQHIITFLSEITLIWFSEASLSVYQSLSNSLHKVKNILCHIFYLLKEFVWKIVSH			binds	binds
